Assay results: article PMC4161973

The chains behind the UniProt entries cited, without tags or fusion partners. Where a name states a change or a piece, a line headed by the entry shows the natural chain unless it says otherwise.
UniProt P39938: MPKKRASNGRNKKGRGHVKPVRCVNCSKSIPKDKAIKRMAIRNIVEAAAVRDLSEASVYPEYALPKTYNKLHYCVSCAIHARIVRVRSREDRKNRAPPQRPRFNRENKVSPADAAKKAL

Experiments:
GST-Pse1 (S. cerevisiae) = target: T1, GST-Pse1 (S. cerevisiae) (UniProt P32337); assay: pull-down; GST-importins immobilised on Glutathione Sepharose, incubated with E. coli lysate containing ∼4 µM eS26^FLAG (or its mutants, or GFP-eS26) in PBSKMT with competing E. coli lysates for 1 hr at 4°C; Coomassie Blue staining or Western; only the target purified
T1 sequence: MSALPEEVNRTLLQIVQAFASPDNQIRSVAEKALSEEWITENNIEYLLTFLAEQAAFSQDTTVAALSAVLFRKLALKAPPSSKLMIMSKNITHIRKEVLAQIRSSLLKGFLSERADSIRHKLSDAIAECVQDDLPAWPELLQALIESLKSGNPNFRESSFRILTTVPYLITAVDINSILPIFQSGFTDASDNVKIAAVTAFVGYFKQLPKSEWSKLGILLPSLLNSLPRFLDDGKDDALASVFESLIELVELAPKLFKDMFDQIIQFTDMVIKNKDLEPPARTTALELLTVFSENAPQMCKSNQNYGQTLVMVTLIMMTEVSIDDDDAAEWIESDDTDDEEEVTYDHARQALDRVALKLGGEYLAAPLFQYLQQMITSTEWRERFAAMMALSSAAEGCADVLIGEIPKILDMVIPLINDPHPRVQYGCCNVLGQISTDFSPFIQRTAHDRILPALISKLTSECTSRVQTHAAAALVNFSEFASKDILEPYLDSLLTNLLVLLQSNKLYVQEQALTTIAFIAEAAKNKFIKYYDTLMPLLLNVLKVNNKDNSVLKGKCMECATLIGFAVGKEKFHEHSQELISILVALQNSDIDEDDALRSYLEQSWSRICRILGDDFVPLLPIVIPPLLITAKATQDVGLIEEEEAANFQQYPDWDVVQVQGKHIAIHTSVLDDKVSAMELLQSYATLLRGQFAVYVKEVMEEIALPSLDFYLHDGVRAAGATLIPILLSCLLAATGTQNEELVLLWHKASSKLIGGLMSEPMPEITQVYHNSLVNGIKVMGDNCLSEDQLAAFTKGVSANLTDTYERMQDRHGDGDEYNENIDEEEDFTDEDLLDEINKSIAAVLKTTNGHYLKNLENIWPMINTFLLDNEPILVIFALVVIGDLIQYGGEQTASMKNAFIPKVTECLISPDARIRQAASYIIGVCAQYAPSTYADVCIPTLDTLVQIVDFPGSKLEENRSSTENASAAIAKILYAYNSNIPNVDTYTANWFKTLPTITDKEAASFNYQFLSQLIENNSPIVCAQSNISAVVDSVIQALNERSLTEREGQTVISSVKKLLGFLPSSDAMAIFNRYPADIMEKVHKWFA

[1] = target: T2, GST-Kap104 (S. cerevisiae) (UniProt P38217); assay: as above
T2 sequence: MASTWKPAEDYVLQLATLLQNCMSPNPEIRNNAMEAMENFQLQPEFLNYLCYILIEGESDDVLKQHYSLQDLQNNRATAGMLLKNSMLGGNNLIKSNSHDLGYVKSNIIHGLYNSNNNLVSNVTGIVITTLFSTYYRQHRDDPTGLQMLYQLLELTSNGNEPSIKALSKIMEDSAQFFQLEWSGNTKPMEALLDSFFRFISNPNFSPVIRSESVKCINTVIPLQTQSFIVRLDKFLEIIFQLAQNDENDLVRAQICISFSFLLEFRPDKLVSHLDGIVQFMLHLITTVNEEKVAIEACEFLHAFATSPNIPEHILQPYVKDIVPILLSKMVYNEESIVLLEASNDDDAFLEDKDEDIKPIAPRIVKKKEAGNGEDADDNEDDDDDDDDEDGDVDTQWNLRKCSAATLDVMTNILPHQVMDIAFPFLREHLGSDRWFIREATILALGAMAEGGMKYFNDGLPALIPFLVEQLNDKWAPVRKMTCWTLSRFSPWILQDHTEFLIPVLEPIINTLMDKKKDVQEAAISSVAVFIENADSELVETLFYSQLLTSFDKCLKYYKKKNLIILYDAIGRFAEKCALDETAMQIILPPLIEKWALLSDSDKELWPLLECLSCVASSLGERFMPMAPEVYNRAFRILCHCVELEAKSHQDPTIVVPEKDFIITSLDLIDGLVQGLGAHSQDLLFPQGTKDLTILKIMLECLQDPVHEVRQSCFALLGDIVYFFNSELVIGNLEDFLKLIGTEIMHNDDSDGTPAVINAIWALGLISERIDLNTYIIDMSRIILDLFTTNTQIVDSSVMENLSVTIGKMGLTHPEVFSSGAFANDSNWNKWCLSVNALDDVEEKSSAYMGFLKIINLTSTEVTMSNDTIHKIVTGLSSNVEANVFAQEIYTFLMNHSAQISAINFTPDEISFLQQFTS

[2] = target: T3, GST-Kap123 (S. cerevisiae) (UniProt P40069); assay: as above
T3 sequence: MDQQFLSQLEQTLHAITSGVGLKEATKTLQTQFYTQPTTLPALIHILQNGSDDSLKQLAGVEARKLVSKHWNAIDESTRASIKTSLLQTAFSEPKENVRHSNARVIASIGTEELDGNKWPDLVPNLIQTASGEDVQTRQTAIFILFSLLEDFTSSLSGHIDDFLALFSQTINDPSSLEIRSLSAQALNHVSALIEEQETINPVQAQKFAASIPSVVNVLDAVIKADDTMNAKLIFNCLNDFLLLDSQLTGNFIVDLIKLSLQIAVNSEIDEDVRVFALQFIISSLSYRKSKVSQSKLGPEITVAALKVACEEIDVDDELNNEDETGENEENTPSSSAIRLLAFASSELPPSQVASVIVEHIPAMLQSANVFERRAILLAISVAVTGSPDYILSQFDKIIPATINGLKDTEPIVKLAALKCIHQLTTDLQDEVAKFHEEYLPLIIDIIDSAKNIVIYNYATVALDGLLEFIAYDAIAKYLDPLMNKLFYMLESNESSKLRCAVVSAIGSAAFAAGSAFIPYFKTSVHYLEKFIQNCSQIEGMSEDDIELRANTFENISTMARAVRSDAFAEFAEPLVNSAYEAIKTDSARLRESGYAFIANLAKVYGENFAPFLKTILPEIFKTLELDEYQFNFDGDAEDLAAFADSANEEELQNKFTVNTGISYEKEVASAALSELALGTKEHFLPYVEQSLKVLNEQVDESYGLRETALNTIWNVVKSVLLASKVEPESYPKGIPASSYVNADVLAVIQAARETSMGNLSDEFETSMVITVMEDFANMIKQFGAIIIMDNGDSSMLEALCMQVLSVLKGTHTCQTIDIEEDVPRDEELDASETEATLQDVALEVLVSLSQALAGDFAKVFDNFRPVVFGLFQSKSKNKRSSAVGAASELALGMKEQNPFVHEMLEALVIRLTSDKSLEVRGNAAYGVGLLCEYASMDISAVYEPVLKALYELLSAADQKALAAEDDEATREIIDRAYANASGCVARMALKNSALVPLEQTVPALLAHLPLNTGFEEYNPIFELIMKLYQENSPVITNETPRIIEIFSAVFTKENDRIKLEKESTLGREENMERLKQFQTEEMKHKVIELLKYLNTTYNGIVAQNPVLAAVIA

Pno1-TAP (S. cerevisiae) = target: T4, Pno1-TAP (S. cerevisiae) (UniProt Q99216); assay: co-IP; tandem affinity purification of pre-ribosomal particles by TAP-tagged baits from yeast (WT and, for Enp1-TAP, Tsr2-depleted cells); Calmodulin-eluates analysed by Western
T4 sequence: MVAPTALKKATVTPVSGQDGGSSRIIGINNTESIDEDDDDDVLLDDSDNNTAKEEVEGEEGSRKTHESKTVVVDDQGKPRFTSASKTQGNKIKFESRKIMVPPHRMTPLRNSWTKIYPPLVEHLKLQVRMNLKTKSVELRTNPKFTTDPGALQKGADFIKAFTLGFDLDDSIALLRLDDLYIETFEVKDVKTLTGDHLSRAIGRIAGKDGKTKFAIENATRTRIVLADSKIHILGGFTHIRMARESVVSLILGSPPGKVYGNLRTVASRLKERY

[3] = target: T3, GST-Kap123 (S. cerevisiae); assay: pull-down; dissociation assay, 1 hr: GST-importin:r-protein^FLAG complexes pre-formed on Glutathione Sepharose (r-protein from E. coli lysate) incubated with buffer alone, 1.5 µM RanGTP, 1.5 µM Tsr2 or His6-Tsr2, or 3 nM 3'-end of 18S rRNA for 1 hr at 4°C; only the target purified

binding (GST-Pse1 (S. cerevisiae)): binds
binding [1]: binds
binding [2]: binds
Substance: GFP-eS26 (from UniProt P39938)

binding (Pno1-TAP (S. cerevisiae)): binds
Substance: eS26 (yeast Rps26), endogenous (from UniProt P39938)

binding [3]: binds
Substance: uS14^FLAG (S. cerevisiae)

These are yes or no findings as the source states them, for the method shown. In cells and extracts the contact can be indirect. Binding can be weak; no strength is given. For some assays here: Where a sequence is shown, tags or fusion partners need not be part of it. Each block holds one substance with its values, some of them ahead of it.
